# Experimental data from PubChem BioAssay AID2417 (National Center for Advancing Translational Sciences (NCATS), 2010).
# Hit rate of the full screen: of about 140,000 compounds, about 4,300 (3.1%) were called active. The shares of active, inactive and inconclusive entries below differ from those in the screen.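 Rule for the calls: active = readout at or below -70, meaning at least 70% loss of cells showing the perinucleolar compartment, a nuclear body marking cancer cells; inconclusive = readout between -30 and a set limit; inactive = the rest.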
# Assay: High Content Assay for Compounds that inhibit the Assembly of the Perinucleolar Compartment;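 note: plate controls were DMSO wells for no effect and camptothecin positive control wells for full effect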
# Settings: PC3M PTB-GFP, PNC prevalence imaging, 16 h; at 10 µM; stronger effect = lower value
# Summary of the method: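 Read-out is percentage of cells bearing a perinucleolar compartment, from automated 20x imaging of fixed, Hoechst-stained PC3M PTB-GFP cells. Cells were seeded 4 h, then exposed 16 h to compound (23 nl of library stock) in duplicate plates.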
row,SMILES,"activity change (PNC), negative = inhibition"
1,O=c1c2cn[nH]c2[nH]c(=S)n1-c1cccc(Cl)c1,inconclusive: -65.1%
2,CCOCc1nnc(NC(=O)CSc2ccc(C)cc2)s1,active: -89.8%
3,CCOC(=O)CCCSc1nc2sc3c(c2c(=O)[nH]1)CCC3,inactive: -6.75%
4,O=C(COC(=O)CCS(=O)(=O)c1ccc(Cl)cc1)Nc1ncc(Cl)cc1Cl,inconclusive: -42.4%
5,COC(=O)N(C)CCCC1(C)C(=O)N(C)c2ccc(O)cc21 (stereo not drawn),inconclusive: -49.9%
6,C=CCc1cccc(/C=N/NC(=O)CCCNc2ccc(C)cc2)c1O,inconclusive: -52.5%
7,O=C(Oc1ccc(Cl)c2cccnc12)c1cccc([N+](=O)[O-])c1,inconclusive: -35.4%
8,Cc1nc2nc(CSc3nnc(C)s3)cc(=O)n2[nH]1,inconclusive: -56.1%
9,COc1ccc(S(=O)(=O)NCCC(=O)NC(C)c2ccccc2)cc1 (stereo not drawn),inconclusive: -34%
10,O=C(NCc1cccnc1)c1cc(S(=O)(=O)N2CCCCC2)ccc1Cl,inactive: 61.7%
11,Cc1ccc(S(=O)(=O)N(CC(=O)N/N=C\c2cccs2)c2cccc3cccnc23)cc1,inconclusive: -47.7%
12,O=C(NCc1ccco1)C(c1cccnc1)N(C(=O)Cn1nnc2ccccc21)c1ccc(F)cc1 (stereo not drawn),inactive: 20%
13,Cc1ccc(N=CC2=C(O)CC(c3cccc(Cl)c3)CC2=O)cc1 (stereo not drawn),inconclusive: -37.5%
14,CCOC(=O)/C(N=Nc1c(C)n(C)n(-c2ccccc2)c1=O)=C(\C)O,inactive: -7.63%
15,Cn1c(=O)c2c(nc(SCC(=O)OCc3ccccc3)n2C)n(C)c1=O,active: -96%
16,COc1ccc(OC)c(NC(=O)CSc2nnc(Cc3cccn3C)n2-c2ccc(F)cc2)c1,inconclusive: -46.6%
17,CC1=CC=CC2=NC(=O)CC(C)(C(=O)N(CC(=O)NC3CCCC3)c3ccccc3C)N12 (stereo not drawn),inactive: -1.28%
18,O=c1c2ccccc2nc(-c2ccc(Cl)c(Cl)c2)n1O,inactive: -2.99%
19,O=C(COC(=O)c1ccc2c(c1)OCO2)NCc1ccc2c(c1)OCO2,inconclusive: -30.2%
20,CCOc1ccc(NC(=O)Cn2nnc(-c3ccccc3NC(=O)c3cccs3)n2)cc1,inactive: -6.88%
21,O=C(NC1CCCC1)c1ccccc1-c1ccccc1,inconclusive: -41.5%
22,Cc1cc(C(=O)COC(=O)CC2Sc3ccccc3NC2=O)c(C)n1-c1ccc2c(c1)OCO2 (stereo not drawn),inconclusive: -62.1%

# 5 compounds from above, sorted by SMILES length, largest number first:
row,SMILES,"activity change (PNC), negative = inhibition"
22,Cc1cc(C(=O)COC(=O)CC2Sc3ccccc3NC2=O)c(C)n1-c1ccc2c(c1)OCO2 (stereo not drawn),inconclusive: -62.1%
6,C=CCc1cccc(/C=N/NC(=O)CCCNc2ccc(C)cc2)c1O,inconclusive: -52.5%
1,O=c1c2cn[nH]c2[nH]c(=S)n1-c1cccc(Cl)c1,inconclusive: -65.1%
8,Cc1nc2nc(CSc3nnc(C)s3)cc(=O)n2[nH]1,inconclusive: -56.1%
21,O=C(NC1CCCC1)c1ccccc1-c1ccccc1,inconclusive: -41.5%

# Additional structures follow:

row,SMILES,"activity change (PNC), negative = inhibition"
1,Cn1cnnc1SCC(=O)Nc1ccccc1,inconclusive: -50.7%
2,CCSc1ccc2nnc(-c3cccc(F)c3)n2n1,inactive: 12.1%
3,COc1ccccc1CN1C(=O)CCC1(C)C(=O)NC1CCCCCC1 (stereo not drawn),inconclusive: -63.3%
4,CCOC(=O)N1CCN(c2c(F)cc3[nH]c(=S)[nH]c3c2Br)CC1,inactive: 28.1%
5,CCn1c(SCC(=O)NNC(=S)Nc2ccccc2)nnc1-c1ccc(Cl)cc1,inconclusive: -51.5%
6,Cc1ccc(NC(=O)CSc2nnc(-c3ccco3)c(-c3ccco3)n2)cc1,inactive: 3.76%
7,COc1nc(N(c2ccccc2)c2ccccc2)nc(-n2ccnc2)n1,inactive: -29.5%
8,COc1cc(C(=O)Nc2ccc(S(=O)(=O)Nc3nccc(C)n3)cc2)cc(OC)c1OC,inconclusive: -45%
9,COC(=O)c1ccc(C(NC(=O)OCc2ccccc2)/C(F)=C/[C@@H](C)C(=O)NCc2ccc(OC)c(OC)c2)cc1 (stereo partly drawn),active: -119%
10,COc1ccc(CCC(=O)Nc2ccc(C)c(S(=O)(=O)N(C)C)c2)cc1OC,inconclusive: -35.7%
11,Cc1nn(-c2ccccn2)c2c1-c1nc(N3CCOCC3)ncc1CC2,inactive: -10.4%
12,Cn1c(=O)c2c(nc(N3CCc4ccccc4C3)n2Cc2ccc(Br)cc2)n(C)c1=O,inconclusive: -39.5%
13,CCOc1ccc2[nH]c(=O)c(CN(Cc3nnnn3Cc3ccco3)C3CCCCC3)cc2c1,inconclusive: -60.3%
14,COc1cccc(Nc2ncccc2C(=O)Nc2ccccc2)c1,active: -80.4%
15,Cc1nn(CC(=O)NCCc2ccccc2)c(=O)c2ccccc12,inconclusive: -51.1%
16,Cc1nnc(SCc2nc(N)nc(Nc3ccccc3)n2)s1,inactive: 5.37%
17,O=C(NCCc1c[nH]c2ccc(Cl)cc12)c1cccnc1,inconclusive: -36.8%
18,COc1cc(C2C(C(C)=O)=C(C)Nc3ncnn32)ccc1O (stereo not drawn),inactive: -15.9%
19,O=C(O)c1ccc(C[n+]2c(-c3ccccc3)csc2Nc2ccccc2)cc1,inactive: 71.7%
20,CCOC(=O)C(C(=O)OCC)N(C#N)c1nc(C)cc(C)n1,inconclusive: -38.8%
21,O=S(=O)(Nc1ccc(S(=O)(=O)N2CCCCCC2)cc1)c1cccs1,inactive: 4.3%
22,CCC(=O)Nc1nc(C)c(-c2csc(Nc3ccc(S(=O)(=O)Nc4cc(C)on4)cc3)n2)s1,inconclusive: -43.3%

row,SMILES,"activity change (PNC), negative = inhibition"
1,CCCCOc1ccc(C(=O)C(CN2CCOCC2)c2ccccc2)cc1 (stereo not drawn),inconclusive: -57.3%
2,CC(C)(C)C1CCC(=NNC(=O)c2ccccc2-n2cccc2)CC1 (stereo not drawn),inactive: 15.5%
3,COc1cccc2c1OCC/C2=N\NC(=O)COc1ccccc1C,inconclusive: -37%
4,Cc1nn(-c2ccccc2)c(C)c1/C=N/O,inconclusive: -32.4%
5,COC(=O)CCC(=O)Nc1cccc(Cl)c1,inconclusive: -42.5%
6,CC(C)OCCCNS(=O)(=O)c1ccc2c(c1)OCCO2,inactive: 16.1%
7,CC(/C=N/NC(=O)c1n[nH]c2c1CCC2)=C\c1ccccc1,inconclusive: -54.3%
8,O=C1c2sc3nc4c(c(=O)n3c2C(=O)N1c1ccccc1)CCC4,inconclusive: -46.2%
9,CN(CC(=O)O/N=C(\N)c1ccccn1)S(=O)(=O)c1ccc(Br)cc1,inconclusive: -53.2%
10,Cc1ccc(-c2nnc(SCC#N)n2N)cc1,active: -82.7%
11,CN1CCN(c2ccc(NC(=O)COc3ccccc3Cl)cc2)CC1,inconclusive: -53.2%
12,CCOC(=O)c1ccc(NC(=O)CSc2nnc(COc3ccccc3OC)n2C)cc1,active: -83.9%
13,CNS(=O)(=O)c1cccc(C(=O)OCC(=O)Nc2sc3c(c2C#N)CCCCC3)c1,inactive: 19.1%
14,O=C(CSc1ncnc2nc[nH]c12)NCCc1ccccc1,inconclusive: -61.3%
15,COc1ccc2c(c1)C=C(C(=O)NCc1ccc(Cl)cc1)CO2,inconclusive: -52.2%
16,COc1ccc(OC)c(NC(=O)CSc2ncccn2)c1,inconclusive: -37.5%
17,CC1CCc2c(sc(NC(=O)CSc3nc4c(c(C(F)(F)F)n3)CCc3ccccc3-4)c2C(N)=O)C1 (stereo not drawn),inconclusive: -39.8%
18,COC(=O)c1cc2ccsc2n1CC(=O)Nc1cc(C)cc(C)c1,inconclusive: -59.6%
19,Cc1ccc(S(=O)(=O)N2CCN(C(=O)CSc3nnnn3C)C2)cc1,inconclusive: -58.7%
20,O=C(CSc1nnnn1-c1cccc2c1CCCC2)NC1CCCC1,inconclusive: -61.1%
21,CN(C)CCOCCP(=O)(c1ccccc1)c1ccccc1,inconclusive: -42.8%
22,O=C(C1CCC(CNS(=O)(=O)c2cccc3cccnc23)CC1)N1CCCC1 (stereo not drawn),inconclusive: -47.6%

# An excerpt of these results, bar-delimited:
row | SMILES | activity change (PNC), negative = inhibition
4 | O=C(COC(=O)CCS(=O)(=O)c1ccc(Cl)cc1)Nc1ncc(Cl)cc1Cl | inconclusive: -42.4%
13 | CCOc1ccc2[nH]c(=O)c(CN(Cc3nnnn3Cc3ccco3)C3CCCCC3)cc2c1 | inconclusive: -60.3%

# (listing goes on)

row,SMILES,"activity change (PNC), negative = inhibition"
1,O=C(Nc1sc2c(c1C(=O)NCc1ccco1)CCCC2)c1ccc2c(c1)OCO2,inconclusive: -54.9%
2,CCCCN1CC2([N+](=O)[O-])C=CC(=O)C([N+](=O)[O-])(C1)C2CC(=O)c1ccccc1 (stereo not drawn),inconclusive: -32.2%
3,COc1ccc(C(=O)NC(=S)NNC(=O)c2cnccn2)cc1OC,inconclusive: -38.1%
4,CC12CN3CC(C)(CN(C1)C3c1ccc(Br)cc1O)C2 (stereo not drawn),inconclusive: -35%
5,O=S(=O)(NCCCCCNS(=O)(=O)c1ccccc1)c1ccccc1,active: -91%
6,Cc1cccc(N2CSC3=C(C#N)C(c4ccc(C)o4)CC(=O)N3C2)c1 (stereo not drawn),inconclusive: -61.6%
7,COc1cccc(CNC(=O)C2CCN(S(=O)(=O)N3CCCCC3)CC2)c1,inactive: 11.3%
8,CN(C)c1ccc(/C=N/NC(=S)NCc2ccco2)cc1,inactive: -20.5%
9,O=C(Nc1cccc(S(=O)(=O)N2CCOCC2)c1)[C@@H]1CCCN1S(=O)(=O)c1ccc(Cl)cc1,inconclusive: -50.8%
10,COc1ccc(/C(C)=N/N=C(\C)c2ccc(OC)cc2OC)c(OC)c1,inactive: 6.93%
11,CN1CCN(C(=O)c2ccc(COc3ccc(C(C)(C)C)cc3)o2)CC1,inactive: 13.2%
12,CC1Cc2ccccc2N1C(=O)CSc1nnnn1C1CCCC1 (stereo not drawn),inconclusive: -43.9%
13,CCc1ccc(OCC(=O)OCC(=O)c2ccc3c(c2)NC(=O)CO3)cc1,inactive: 5%
14,COc1ccc(NC(=O)CC2C(=O)N(c3cccc(C)c3)C(=O)N2C2CCCCC2)cc1 (stereo not drawn),inconclusive: -38.1%
15,COc1ccc(CC(=O)N2CC(=O)N(CCc3ccccc3)C(=O)C2)cc1,inactive: -28.3%
16,O=C(COC(=O)c1cccs1)NCCC1=CCCCC1,inconclusive: -31.7%
17,CCC(SC1=NCCS1)C(=O)Nc1ccc(S(N)(=O)=O)cc1 (stereo not drawn),inconclusive: -48.8%
18,CCCC(=O)c1cc(-c2nc3ccccc3n2C)n(C)c1,inconclusive: -48.4%
19,O=C(NC1CCCCC1)c1ccc2c(=O)n(CC3CCCO3)c(=O)[nH]c2c1 (stereo not drawn),inconclusive: -32.5%
20,COc1cc(-c2nc3c(c(C)nn3-c3ccccc3)c3cc(OC)c(OC)cc23)ccc1O,active: -109%
21,Cc1nc(NCCc2ccccc2)c(C#N)c(C)c1[N+](=O)[O-],inactive: 12.2%
22,O=C(Nc1nc2ccccc2n1CCN1CCOCC1)c1cn(-c2ccccc2)nc1-c1ccccc1,inconclusive: -49.1%
